Values from PubChem BioAssay AID1053208 (Peter MacCallum Cancer Centre, 2014)
Shown is a random part of about 17,000 reagents tested. Of all reagents, 788 (4.7%) were called active. 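Calls rest on z-score classes alone; an extra cut-off of viability at most 70% of control was not applied to them.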 Entries without a mark were called inactive. Not all columns of the deposit are shown.

Test: 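Genes whose silencing cuts survival of bone tumour cells only with doxorubicin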 (primary screen)
Cells: mouse osteosarcoma cells, early-passage culture from an engineered mouse model of fibroblastic bone tumour
Reagent: siRNA pool against mouse genes, 40 nM
Time to read-out: about 120 h (48 h before drug, then 72 h with drug)
Treatment: doxorubicin 100 nM for 72 h, roughly 30-40% inhibitory dose
Measurement: 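Viability read as ATP luminescence after 72 h of 100 nM doxorubicin or none, duplicate wells averaged, scaled to non-targeting siRNA, then expressed as robust z-scores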
Reading the numbers: viability z-score with doxorubicin: higher = more viable cells under doxorubicin; viability z-score without drug: higher = more viable cells with knock-down alone; z-score of drug to no-drug ratio: higher = less drug sensitisation by knock-down
Rule for the call: 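a pool counts as active when its viability z-score with doxorubicin is -2 or below and its z-score without drug lies between -2 and 2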

The opening 4 records, ahead of the listing:
combined z-score class	viability z-score with doxorubicin	viability z-score without drug	z-score of drug to no-drug ratio	target
no change with or without drug	-1.35	0.17	-1.46	Tbx1 (T-box 1)
no change with or without drug	1.01	0.51	0.79	Or4p23 (olfactory receptor family 4 subfamily P member 23)
no change with or without drug	0.9	0.34	0.79	Cpt1b (carnitine palmitoyltransferase 1b, muscle)
no change with or without drug	-1.35	-0.17	-1.24	Tmem185b (transmembrane protein 185B)

Main list, from the first entry:
combined z-score class	viability z-score with doxorubicin	viability z-score without drug	z-score of drug to no-drug ratio	target
no change with or without drug	-1.35	0.17	-1.46	Tbx1 (T-box 1)
no change with or without drug	1.01	0.51	0.79	Or4p23 (olfactory receptor family 4 subfamily P member 23)
no change with or without drug	0.9	0.34	0.79	Cpt1b (carnitine palmitoyltransferase 1b, muscle)
no change with or without drug	-1.35	-0.17	-1.24	Tmem185b (transmembrane protein 185B)
high cell count without drug only	1.24	2.53	-0.34	Gm5069 (predicted pseudogene 5069)
no change with or without drug	1.35	-0.17	1.69	Arhgap25 (Rho GTPase activating protein 25)
no change with or without drug	-0.56	-0.84	0.11	Ambp (alpha 1 microglobulin/bikunin precursor)
high cell count with doxorubicin only	2.36	1.85	1.12	Map3k13 (mitogen-activated protein kinase kinase kinase 13)
no change with or without drug	-0.45	1.35	-1.24	Taar2 (trace amine-associated receptor 2)
no change with or without drug	-0.9	1.18	-1.57	Ctnna1 (catenin alpha 1)
no change with or without drug	-1.12	-0.17	-1.01	Erlin2 (ER lipid raft associated 2)
no change with or without drug	-0.67	-0.51	-0.22	Clcf1 (cardiotrophin-like cytokine factor 1)
no change with or without drug	-1.57	0.17	-1.69	Arid1a (AT-rich interaction domain 1A)
low cell count with doxorubicin only (active)	-2.02	1.85	-2.92	Rnase2a
no change with or without drug	0.34	0.34	0.22	Adamts12 (ADAM metallopeptidase with thrombospondin type 1 motif 12)
no change with or without drug	-0.67	1.52	-1.46	Rhcg (Rh family C glycoprotein)
no change with or without drug	-0.67	-0.51	-0.22	Tas2r106 (taste receptor, type 2, member 106)
no change with or without drug	-1.35	-1.18	-0.56	Frs3 (fibroblast growth factor receptor substrate 3)
no change with or without drug	1.12	0.34	1.01	Naga (N-acetyl galactosaminidase, alpha)
low cell count with doxorubicin only (active)	-2.02	-1.35	-1.24	Anapc4 (anaphase promoting complex subunit 4)
no change with or without drug	-1.8	-1.18	-1.01	Krtap16-3 (keratin associated protein 16-3)
no change with or without drug	0.45	0.17	0.45	Blcap (bladder cancer associated protein)
no change with or without drug	0.9	1.85	-0.22	Nr2e1 (nuclear receptor subfamily 2, group E, member 1)
no change with or without drug	-0.22	0.17	-0.22	Or51a5 (olfactory receptor family 51 subfamily A member 5)
no change with or without drug	0.22	0.51	0	Vmn1r42 (vomeronasal 1 receptor 42)
no change with or without drug	-0.22	0.34	-0.34	Prdx1 (peroxiredoxin 1)
no change with or without drug	1.12	-0.51	1.69	Ppm1d (protein phosphatase 1D magnesium-dependent, delta isoform)
no change with or without drug	0	0.51	-0.22	Mr1 (major histocompatibility complex, class I-related)
low cell count with doxorubicin only (active)	-2.02	-1.52	-1.12	2810408A11Rik (RIKEN cDNA 2810408A11 gene)
no change with or without drug	-1.46	-1.35	-0.56	Get4 (golgi to ER traffic protein 4)
low cell count with doxorubicin only (active)	-2.25	1.69	-3.15	Gchfr (GTP cyclohydrolase I feedback regulator)
high cell count without drug only	1.35	2.02	0.11	Serpinf2 (serine (or cysteine) peptidase inhibitor, clade F, member 2)
no change with or without drug	-1.01	-1.35	0	Cd81 (CD81 antigen)
no change with or without drug	-1.91	-0.51	-1.57	Or4f4b (olfactory receptor family 4 subfamily F member 4B)
no change with or without drug	-0.56	-0.51	-0.11	Serpina1d (serine (or cysteine) peptidase inhibitor, clade A, member 1D)
no change with or without drug	-1.35	0.17	-1.46	Xk
no change with or without drug	0.45	1.85	-0.67	Zfp82 (zinc finger protein 82)
no change with or without drug	-0.22	-0.51	0.22	Unc5c (unc-5 netrin receptor C)
no change with or without drug	-0.45	0.34	-0.56	Ogn (osteoglycin)
no change with or without drug	0.9	0.84	0.45	Efcc1 (EF hand and coiled-coil domain containing 1)
no change with or without drug	-1.35	-0.84	-0.79	Cpn1 (carboxypeptidase N, polypeptide 1)
no change with or without drug	0	-0.17	0.22	Crtam (cytotoxic and regulatory T cell molecule)
no change with or without drug	0.67	1.18	0	Hapln2 (hyaluronan and proteoglycan link protein 2)
no change with or without drug	0.67	-0.51	1.24	Elmod3 (ELMO/CED-12 domain containing 3)
no change with or without drug	-0.45	0.34	-0.56	Entpd3 (ectonucleoside triphosphate diphosphohydrolase 3)
no change with or without drug	-1.24	-0.51	-0.9	R74862 (expressed sequence R74862)
no change with or without drug	0.9	-0.34	1.35	Cst5 (cystatin D)
no change with or without drug	-0.9	0	-0.79	Aoc3 (amine oxidase, copper containing 3)
no change with or without drug	-1.8	-0.51	-1.46	Uty
no change with or without drug	-1.01	0.34	-1.12	Zwilch (zwilch kinetochore protein)
